This note sets out measurements from PMC10199339.

Protein sequences, listed by entry. Tags and fused reporters are not part of them.
UniProt P46940: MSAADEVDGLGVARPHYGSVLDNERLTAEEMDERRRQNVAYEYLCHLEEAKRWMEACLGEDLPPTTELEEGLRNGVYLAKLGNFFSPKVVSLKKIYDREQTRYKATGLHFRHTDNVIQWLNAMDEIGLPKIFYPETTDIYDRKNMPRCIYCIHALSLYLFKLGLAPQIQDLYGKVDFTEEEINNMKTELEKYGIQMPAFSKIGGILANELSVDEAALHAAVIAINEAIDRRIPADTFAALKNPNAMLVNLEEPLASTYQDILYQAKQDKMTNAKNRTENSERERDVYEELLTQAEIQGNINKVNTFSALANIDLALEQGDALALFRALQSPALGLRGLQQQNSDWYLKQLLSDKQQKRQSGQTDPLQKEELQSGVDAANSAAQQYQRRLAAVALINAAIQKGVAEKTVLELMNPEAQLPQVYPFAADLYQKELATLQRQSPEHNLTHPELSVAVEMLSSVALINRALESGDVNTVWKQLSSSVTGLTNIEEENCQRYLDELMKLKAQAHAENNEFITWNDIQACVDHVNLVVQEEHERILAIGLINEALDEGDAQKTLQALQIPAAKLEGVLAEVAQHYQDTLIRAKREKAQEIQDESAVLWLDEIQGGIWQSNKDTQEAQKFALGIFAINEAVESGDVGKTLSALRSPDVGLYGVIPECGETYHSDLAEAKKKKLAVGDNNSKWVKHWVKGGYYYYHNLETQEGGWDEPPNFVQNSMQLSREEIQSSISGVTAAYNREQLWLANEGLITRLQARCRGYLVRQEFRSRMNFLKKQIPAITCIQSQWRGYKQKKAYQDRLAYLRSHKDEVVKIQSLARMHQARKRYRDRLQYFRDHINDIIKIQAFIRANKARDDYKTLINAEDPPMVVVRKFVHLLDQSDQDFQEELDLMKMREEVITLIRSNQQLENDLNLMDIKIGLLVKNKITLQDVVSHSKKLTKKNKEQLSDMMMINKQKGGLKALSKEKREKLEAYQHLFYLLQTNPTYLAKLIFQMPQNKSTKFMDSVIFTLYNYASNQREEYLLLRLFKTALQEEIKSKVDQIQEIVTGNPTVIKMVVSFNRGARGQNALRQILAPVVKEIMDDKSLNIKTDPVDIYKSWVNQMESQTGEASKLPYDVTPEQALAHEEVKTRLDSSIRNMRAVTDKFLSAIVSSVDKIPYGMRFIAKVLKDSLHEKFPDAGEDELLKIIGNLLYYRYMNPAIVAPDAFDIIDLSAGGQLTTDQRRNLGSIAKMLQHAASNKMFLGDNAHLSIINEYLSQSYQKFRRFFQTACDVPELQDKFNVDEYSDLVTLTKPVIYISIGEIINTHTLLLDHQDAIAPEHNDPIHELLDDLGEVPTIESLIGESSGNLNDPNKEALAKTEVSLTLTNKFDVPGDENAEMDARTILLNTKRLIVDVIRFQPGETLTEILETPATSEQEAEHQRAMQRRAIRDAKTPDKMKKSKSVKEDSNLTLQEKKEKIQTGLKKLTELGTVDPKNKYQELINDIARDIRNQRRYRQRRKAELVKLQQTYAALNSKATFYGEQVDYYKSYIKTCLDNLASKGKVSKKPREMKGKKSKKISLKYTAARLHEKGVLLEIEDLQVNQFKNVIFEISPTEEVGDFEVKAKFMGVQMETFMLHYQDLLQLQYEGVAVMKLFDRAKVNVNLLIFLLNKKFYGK

No constants are given. Whether binding was seen depends on the method and setting. In cells and extracts the contact can be indirect. Here binding means that the protein was enriched with, or labelled near, the bait; the list need not be complete.

The experiment has as its target IQ-containing Ras GTPase like Protein 1 (IQGAP1) (human (endogenous in MDA-MB-231 and MDA-MB-468)) (UniProt P46940). Kind of experiment: affinity purification with mass spectrometry; IP with IQGAP1-specific monoclonal antibody (IgG as control) and protein A agarose beads from NP40 lysates of MDA-MB-231 or MDA-MB-468 cells treated with DMSO or 20 μM Haldol for 48 hrs; 4 °C; SDS-PAGE, in-gel trypsin digest, MALDI-TOF, Mascot search.

B1: Coordinated expression to IRXA2 (CEI) (protein, UniProt Q86SI9 36-138)
chain: LASGRLPLAVHSAQHGPGSGAPWLRIARRALRFVLSKHWGDDCYLTNRLWQDLKPPSHVENGQELRLAPPVQWALQVQGNQLQTAVLCLRMAPPEPAGSRQRI
For B1, the binding entry was “binds”.

B2: TGF-β1-induced antiapoptotic factor (TIAF1) (protein, UniProt O95411 1-115)
chain: MSSPSSPFREQSFLCAAGDAGEESRVQVLKNEVRRGSPVLLGWVEQAYADKCVCGPSAPPAPTPPSLSQRVMCNDLFKVNPFQLQQFRADPSTASLLLCPGGLDHKLNLRGKAWG
In the case of B2, the binding entry is listed as “binds”.

B3: Zinc Finger DNA-binding protein (ZN835) (protein, UniProt Q9Y2P0 1-537)
chain: MEGLLSVALQGAELEGNWKHEGQVEDLQENQESCPEPEAVACKGDPAGDSMQERDEFSRIPRTISSPAATQASVPDDSSSRRCSAPGESPKERHPDSRQRERGGGPKKPWKCGDCGKAFSYCSAFILHQRIHTGEKPFACPECGKAFSQSVHLTLHQRTHTGEKPYACHECGKAFSQGSYLASHWRTHTGEKPHRCADCGKAFTRVTHLTQHRRVHTGERPYACAQCAKAFRNRSSLIEHQRIHTGEKPYECSACAKAFRFSSALIRHQRIHTEEKPYRCGQCAKAFAQIAHLTQHRRVHTGEKPYTCQDCGALFSQSASLAEHRRIHTGEKPYACGQCAKAFTQVSHLTQHQRTHTGERPYPCHDCGKRFSNRSHLLQHRLVHTGERPYRCLQCGAAFSHVSSLIEHQKIHTGERPYKCGECGKAFSQGSSLALHQRTHTGERPYTCPECGKAFSNRSYLIQHHIVHTGEKPYECSGCGKAFSFSSALIRHQRTHADSSGRLCPAPTPDSTPGLSQGGETCQQGCPGRNPRGPAED
For B3, the binding entry was “binds”.
